The results in this text go back to article PMC7819943, “Rice protein-binding microarrays: a tool to detect cis-acting elements near promoter regions in rice”.

Sequences of proteins named here, by UniProt entry; tags and fusion partners are left off.
UniProt Q0JBA9, entry or part of it: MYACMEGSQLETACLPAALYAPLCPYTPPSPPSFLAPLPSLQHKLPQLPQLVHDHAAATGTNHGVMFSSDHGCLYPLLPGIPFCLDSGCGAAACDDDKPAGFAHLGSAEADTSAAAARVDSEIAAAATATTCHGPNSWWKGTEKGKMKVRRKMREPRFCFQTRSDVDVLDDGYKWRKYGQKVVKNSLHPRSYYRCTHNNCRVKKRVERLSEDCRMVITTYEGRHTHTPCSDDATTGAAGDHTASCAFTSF

The other results are listed elsewhere or left out.

The assay has as its target OsWRKY34 (Oryza sativa, UniProt Q0JBA9 1-250). Kind of assay: protein-binding microarray (RPBM); PBS, 2% BSA, 51.3 ng/ul salmon testes DNA, 50 uM zinc acetate, 200 nM TF, 25 C, 1 h; high values mean tight binding. Particulars: protein: recombinant; tags: N-terminal polyhistidine and DsRed monomer fusion (pET32a); label: CyDye5-dUTP incorporated in the synthesized complementary strand; 3' TTTTT single-stranded linker to array surface; dsDNA, one strand shown. An outline of the steps: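 The binding signal is fluorescence intensity per array feature (arbitrary units). Readings came from an Axon 4000B scanner after a washed, 2% BSA-blocked, double-stranded custom Agilent array had been incubated for 1 h at 25 °C with 200 nM protein and 50 µM zinc acetate. The protein was a Ni–NTA-purified transcription factor fused N-terminally to polyhistidine and DsRed, expressed in E. coli BL21-CodonPlus.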
Consider “GTCTCCTCTGTTTATATAAATCCCAAAGGCCTCATTCGCTCGGAGTCACCTAGTGCAG”, for which the binding signal was 9360 fluorescence intensity (a.u.). The same measure for “CTCGCGTCAGTCAGTCCCGTCAGCCGTCGTCACCGCCTTGCGGAGTCACCTAGTGCAG”: 8370 fluorescence intensity (a.u.); for “ATTCATTCCTATTTGCAATTCAGATTGCTTTTATCTTGTTCGGAGTCACCTAGTGCAG”: 8170 fluorescence intensity (a.u.); for “TGGAACTCAGTGCTGCCATATTATTACCCGTTGTTCTTTTCGGAGTCACCTAGTGCAG”: 12000 fluorescence intensity (a.u.). For the sequence “CCTCACCGATGGATTTTTTAGCCCGATCCTACCCCTCCTACGGAGTCACCTAGTGCAG”, the binding signal is 10500 fluorescence intensity (a.u.). On to “TCTTTCCTTACCTCGGACGCATAGCCGGTTTGGCCTTTTTCGGAGTCACCTAGTGCAG”, for which the binding signal is 8240 fluorescence intensity (a.u.). The same measure for “CATTTAGGCATTTGGAATTTCTGGATTTGTCCCAGCTATCCGGAGTCACCTAGTGCAG”: 8170 fluorescence intensity (a.u.); for “TTTCCTTGTTTCGTCCTGATGACTTGCCTCACTCACTATACGGAGTCACCTAGTGCAG”: 10700 fluorescence intensity (a.u.); for “GGCGCCCGTCCCGTCTCGTCTTTGTCCCACACGCGCAAGTCGGAGTCACCTAGTGCAG”: 9690 fluorescence intensity (a.u.). To “CCCTCATCATTTTCCCATGATTTTTCCCTTCAATTCTTCACGGAGTCACCTAGTGCAG” belongs 9430 fluorescence intensity (a.u.); to “TAACCAACCCCATCACCATCCCATTTTTTCGGATCTGAGACGGAGTCACCTAGTGCAG”, 8230 fluorescence intensity (a.u.); to “ATGGAGATGTTATTTGTAGCGCTGCCCTTTTACTATTCGCCGGAGTCACCTAGTGCAG”, 10700 fluorescence intensity (a.u.). To “GCGTCCTCTCTCTCTCTCTCTCGATCCACCACCACCCATGCGGAGTCACCTAGTGCAG” belongs 8980 fluorescence intensity (a.u.); to “ATAATTCGTTCGTGCCTTTAATTTGGACTCAGTTGGTTTGCGGAGTCACCTAGTGCAG”, 8530 fluorescence intensity (a.u.); to “TCTCTCTCTCTCTTTGTGTCTTTCTCAAGGGAGAATTAACCGGAGTCACCTAGTGCAG”, 8690 fluorescence intensity (a.u.). Consider “CCATCACGGCAGCCACTCAGACGTCCTCCCCGCTTTATCACGGAGTCACCTAGTGCAG”, for which the binding signal was 11000 fluorescence intensity (a.u.). The same measure for “GAGGGAAGTGTCATCTTCGTCCTGGCATCCTTCAATTCCACGGAGTCACCTAGTGCAG”: 8430 fluorescence intensity (a.u.); for “CATGGTCAATCTACTCGTTAACGTACATTCACGGTTATTTCGGAGTCACCTAGTGCAG”: 8960 fluorescence intensity (a.u.); for “TTTGCACACGGGTGACTCGTCTCTTTGTACTCACTCTCTCCGGAGTCACCTAGTGCAG”: 9840 fluorescence intensity (a.u.). For the sequence “TCCTGTTCGTTGACTTCAACCATGTGCCGATCGAACCGTGCGGAGTCACCTAGTGCAG”, the binding signal is 10600 fluorescence intensity (a.u.). The same measure for “GCAGCAACATGACAACTCTTTACTCCTTCTCGCTAGCTTTCGGAGTCACCTAGTGCAG”: 8760 fluorescence intensity (a.u.). On to “TGCTTGCAAGCAATGTTGTGTGTAGTGGCTTTGCATTGACCGGAGTCACCTAGTGCAG”, for which the binding signal was 9980 fluorescence intensity (a.u.). As for “TTCTCTTCTTCTTCTTGTTGCACACCGCCGGCCGGCCGTGCGGAGTCACCTAGTGCAG”, the binding signal is 8260 fluorescence intensity (a.u.). To “ACCATGTTATTATCACTGGTCATCCACTCATTGAACGTGACGGAGTCACCTAGTGCAG” belongs 8270 fluorescence intensity (a.u.). To “ATTTTGGTTATGCTGGATATATATATACTGTATTAATTTACGGAGTCACCTAGTGCAG” belongs 8350 fluorescence intensity (a.u.); to “AAAACTCTAAATGGCTATCTACATACTACCTTCGTTTTTTCGGAGTCACCTAGTGCAG”, 10100 fluorescence intensity (a.u.); to “TCTTGTGGGTCTATAATCTTGTATGTAATGCATTAAATTCCGGAGTCACCTAGTGCAG”, 10400 fluorescence intensity (a.u.). To “TCTACGGGTATCCCGCGTCGACAATATTCCCATGCATTTACGGAGTCACCTAGTGCAG” belongs 10900 fluorescence intensity (a.u.). For “GGTCATCTTCTCCCTCGCCGGCGAGCGCTTATATAGTCGTCGGAGTCACCTAGTGCAG”, the binding signal was 8460 fluorescence intensity (a.u.). The same measure for “CTTCCGTTCCGTCTCGTTGTTGTTGCTGCCGCAGCAGCGCCGGAGTCACCTAGTGCAG”: 8740 fluorescence intensity (a.u.); for “CCGGTTCGGTTGGCCGTTTGACCGGTCGCCGCGTCGCTATCGGAGTCACCTAGTGCAG”: 9000 fluorescence intensity (a.u.).

Turning to “CTGGTTGGCTTAGTTATTGTGATTCGATCCTACATTTCCGCGGAGTCACCTAGTGCAG”, the binding signal is 11100 fluorescence intensity (a.u.). On to “TTCCGTTTGCAAACATATCGTTGGGATTATTCCTCGTCAACGGAGTCACCTAGTGCAG”, for which the binding signal was 8590 fluorescence intensity (a.u.). To “ATGTCAGCCTCACTCCTCTCTTCTTCCCTCTCCCTTCTCTCGGAGTCACCTAGTGCAG” belongs 9340 fluorescence intensity (a.u.); to “GATGGGAGGGGTGGTGGTTGAATACGCGTGACAGTAGGGGCGGAGTCACCTAGTGCAG”, 12100 fluorescence intensity (a.u.). As to “CGGCCCAAACCATCGCTGCCGCCAGCTCGTGCCGCACAATCGGAGTCACCTAGTGCAG”, the binding signal is 9040 fluorescence intensity (a.u.). To “GGTCGCTATTTTCTTCCTTTTCCACACGGACCGAGCACCTCGGAGTCACCTAGTGCAG” belongs 8730 fluorescence intensity (a.u.); to “ATCAATATCTGGGAGGGATTTCGAATGGTCTTTGATAAATCGGAGTCACCTAGTGCAG”, 8380 fluorescence intensity (a.u.). The same measure for “CACCGCGATGACTCTGCCTACTCTCTCCGTGCCTCGCTCCCGGAGTCACCTAGTGCAG”: 9270 fluorescence intensity (a.u.); for “ACATGTGGGGTTTGTTGTTGGCTCCGCCAGGTTAAACATGCGGAGTCACCTAGTGCAG”: 8720 fluorescence intensity (a.u.); for “CCGACATCGCGCGCGTCTCCGCCATGCTGGCGCCTTCACCCGGAGTCACCTAGTGCAG”: 12800 fluorescence intensity (a.u.). The same measure for “TCACTTTTCATCCACTCTCCCATAATATCATCTTTCCGTTCGGAGTCACCTAGTGCAG”: 9170 fluorescence intensity (a.u.).
